Test results published in patent US20250188069A1, “COMPOUNDS AND METHODS FOR DEGRADING CASEIN KINASE 1 ALPHA” (PIN THERAPEUTICS, INC., priority 2022, published 2025).
Counter-ions that a name gives are not always drawn. At least one read-out could not be matched to a standard name with certainty.

By UniProt entry, the sequences of proteins in these tests, tags left out. Where a name states a change or a piece, a line headed by the entry shows the natural chain unless it says otherwise.
UniProt P48729: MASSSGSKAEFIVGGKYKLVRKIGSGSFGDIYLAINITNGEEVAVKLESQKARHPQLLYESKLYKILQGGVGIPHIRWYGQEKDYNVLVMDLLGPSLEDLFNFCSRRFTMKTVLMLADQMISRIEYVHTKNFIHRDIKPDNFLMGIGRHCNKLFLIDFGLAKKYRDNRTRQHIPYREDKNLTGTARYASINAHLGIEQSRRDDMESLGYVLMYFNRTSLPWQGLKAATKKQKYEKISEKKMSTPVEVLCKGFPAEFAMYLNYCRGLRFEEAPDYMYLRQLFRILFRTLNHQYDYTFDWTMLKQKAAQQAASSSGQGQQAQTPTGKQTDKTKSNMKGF
UniProt Q96SW2: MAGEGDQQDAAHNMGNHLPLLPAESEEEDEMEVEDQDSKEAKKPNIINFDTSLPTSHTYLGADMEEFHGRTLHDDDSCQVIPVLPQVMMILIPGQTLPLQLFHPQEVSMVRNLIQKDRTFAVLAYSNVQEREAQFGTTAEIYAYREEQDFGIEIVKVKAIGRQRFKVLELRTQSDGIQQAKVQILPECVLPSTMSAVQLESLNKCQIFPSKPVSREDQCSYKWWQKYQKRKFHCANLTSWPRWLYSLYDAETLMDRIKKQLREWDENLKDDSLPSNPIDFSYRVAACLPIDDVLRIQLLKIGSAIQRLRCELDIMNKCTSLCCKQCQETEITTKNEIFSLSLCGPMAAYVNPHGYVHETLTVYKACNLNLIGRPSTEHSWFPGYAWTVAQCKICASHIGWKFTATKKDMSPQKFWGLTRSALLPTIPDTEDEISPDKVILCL

The molecules below were run against CK1α (Homo sapiens, UniProt P48729+Q96SW2) (assay: CK1α degradation, flow cytometry in MV4-11 cells). Details: % reduction of CK1α compared to DMSO, MV4-11 cells at 1 M for 16 hours.
Assay type: cell-based
Set-up: CK1α levels were determined in MV-4-11 cells using Jess (Protein Simple); host or cells: MV-4-11
Procedure: MV-4-11 cells were obtained from ATCC and grown in IMDM supplemented with 10% FBS. The cells were maintained at 37° C. under 5% CO2.
Compounds of the present disclosure were added to cells (final DMSO concentration of 0.5%) and incubated for 16 hours. CK1α level was determined in MV4-11 cells using flow cytometry (Luminex, Guava EasyCyte Plus). Briefly, cells were prepared with sequential 10% formalin and 70% methanol fixation. […] GuavaSoft Incyte software was used to analyse the flow cytometry data. Protein levels relative to DMSO are calculated for CK1α.
The efficacy of CK1α degradation of other part of compounds of the present disclosure was determined by treating MV4-11 cells at […] (Final DMSO concentration of 0.5%) for 16 hours. Protein levels relative to DMSO are calculated for CK1α.
Protein levels relative to DMSO are calculated for CK1α.
Cl.Cl.NCCCCN(C[C@H]1CC[C@@H](N)CC1)c1cccc2c1CN(C1CCC(=O)NC1=O)C2=O (stereo partly shown) [Compound 106, 3-(4-((4-aminobutyl)(((1s,4s)-4-aminocyclohexyl)methyl)amino)-1-oxoisoindolin-2-yl)piperidine-2,6-dione, 2HCl] was tested, and the CK1α degradation classification was “B (Degradation is less than 75% & greater than or equal to 50%)”. In the case of NCCCCN(c1cccc2c1CN(C1CCC(=O)NC1=O)C2=O)[C@H]1CC[C@@H](CN)CC1 (stereo partly shown) [Compound 104, 3-(4-((4-aminobutyl)((1s,4s)-4-(aminomethyl)cyclohexyl)amino)-1-oxoisoindolin-2-yl)piperidine-2,6-dione dihydrochloride], the CK1α degradation classification was “A (Degradation is greater than or equal to 75%)”. Cl.Cl.NCCCCN(c1cccc2c1CN(C1CCC(=O)NC1=O)C2=O)[C@H]1CC[C@H](N)CC1 (stereo partly shown) [Compound 103, 3-(4-((4-aminobutyl)((1r,4r)-4-aminocyclohexyl)amino)-1-oxoisoindolin-2-yl)piperidine-2,6-dione, 2HCl] was tested, and the CK1α degradation classification was “A (Degradation is greater than or equal to 75%)”. For Cl.Cl.NCCCCN(c1cccc2c1CN(C1CCC(=O)NC1=O)C2=O)[C@H]1CC[C@@H](N)CC1 (stereo partly drawn) [Compound 102, 3-(4-((4-aminobutyl)((1S,4S)-4-aminocyclohexyl)amino)-1-oxoisoindolin-2-yl)piperidine-2,6-dione dihydrochloride], the CK1α degradation classification was “B (Degradation is less than 75% & greater than or equal to 50%)”. Cl.NCCCCN(c1cccc2c1CN(C1CCC(=O)NC1=O)C2=O)[C@H]1CC[C@H](CN)CC1 (stereo partly drawn) [Compound 105, 3-(4-((4-aminobutyl)((1R,4R)-4-(aminomethyl)cyclohexyl)amino)-1-oxoisoindolin-2-yl)piperidine-2,6-dione, 2HCl] was tested, and the CK1α degradation classification was “A (Degradation is greater than or equal to 75%)”. For C[C@H]1CC[C@@H](N(CCCCN)c2cccc3c2CN(C2CCC(=O)NC2=O)C3=O)CC1 (stereo partly shown) [Compound 108, 3-(4-((4-aminobutyl)((1s,4s)-4-methylcyclohexyl)amino)-1-oxoisoindolin-2-yl)piperidine-2,6-dione hydrochloride], the CK1α degradation classification was “A (Degradation is greater than or equal to 75%)”. CCCCCN(CCCCNC(=O)CC1CCCCC1)c1cccc2c1CN(C1CCC(=O)NC1=O)C2=O (stereo not shown) [Compound 151, 2-cyclohexyl-N-(4-((2-(2,6-dioxopiperidin-3-yl)-1-oxoisoindolin-4-yl)(pentyl)amino)butyl)acetamide] was tested, and the CK1α degradation classification was “B (Degradation is less than 75% & greater than or equal to 50%)”. For Cl.Cl.NCCCCN(C[C@H]1CC[C@H](N)CC1)c1cccc2c1CN(C1CCC(=O)NC1=O)C2=O (stereo partly shown) [Compound 107, 3-(4-((4-aminobutyl)(((1r,4r)-4-aminocyclohexyl)methyl)amino)-1-oxoisoindolin-2-yl)piperidine-2,6-dione, HCl], the CK1α degradation classification was “A (Degradation is greater than or equal to 75%)”. C[C@H]1CC[C@H](N(CCCCN)c2cccc3c2CN(C2CCC(=O)NC2=O)C3=O)CC1 (stereo partly shown) [Compound 109, 3-(4-((4-aminobutyl)((1r,4r)-4-methylcyclohexyl)amino)-1-oxoisoindolin-2-yl)piperidine-2,6-dione hydrochloride] was tested, and the CK1α degradation classification was “A (Degradation is greater than or equal to 75%)”. With CCCCCN(C[C@H]1CC[C@H](N)CC1)c1cccc2c1CN(C1CCC(=O)NC1=O)C2=O.Cl (stereo partly shown) [Compound 92, 3-(4-((((1r,4r)-4-aminocyclohexyl)methyl)(pentyl)amino)-1-oxoisoindolin-2-yl)piperidine-2,6-dione, HCl] the CK1α degradation classification was “B (Degradation is less than 75% & greater than or equal to 50%)”.
